# Data from paper PMC3402419.
# The chains behind the UniProt entries cited, without tags or fusion partners.
# UniProt Q99471: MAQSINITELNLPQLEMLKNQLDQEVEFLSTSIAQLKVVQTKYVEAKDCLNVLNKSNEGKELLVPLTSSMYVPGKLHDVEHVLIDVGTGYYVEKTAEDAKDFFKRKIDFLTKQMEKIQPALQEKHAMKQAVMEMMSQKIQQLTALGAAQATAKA
# UniProt P61758: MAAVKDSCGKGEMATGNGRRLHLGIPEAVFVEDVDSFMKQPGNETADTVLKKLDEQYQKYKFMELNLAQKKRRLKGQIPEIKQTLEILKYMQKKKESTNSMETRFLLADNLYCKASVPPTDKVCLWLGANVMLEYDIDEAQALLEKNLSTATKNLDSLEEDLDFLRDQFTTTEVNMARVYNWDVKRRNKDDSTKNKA
# UniProt Q9UHV9: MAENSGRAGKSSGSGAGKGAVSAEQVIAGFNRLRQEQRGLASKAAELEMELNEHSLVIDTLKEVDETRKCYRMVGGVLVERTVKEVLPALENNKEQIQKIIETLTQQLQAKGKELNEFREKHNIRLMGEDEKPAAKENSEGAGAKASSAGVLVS
# Biological target: FLAG-tagged MM-1α (UniProt Q99471)
# Assay: affinity purification with mass spectrometry; extracts of F-MM-1-expressing H1299 and parental H1299 cells precipitated with agarose-conjugated anti-FLAG (M2); silver-stained specific bands cut out, trypsin, TOF-MS
row,Substance,binding
1,PFD3 (from UniProt P61758 1-197),binds
2,PFD2 (from UniProt Q9UHV9 1-154),binds

# No constants are given. Whether binding was seen depends on the method and setting. In cells and extracts the contact can be indirect. Here binding means that the protein was enriched with, or labelled near, the bait; the list need not be complete.
